In PubChem BioAssay AID504648 (National Center for Advancing Translational Sciences (NCATS), 2011):
The campaign covered roughly 390,000 compounds. About 610 (0.16%) were called active. This list was built around the results that the source calls inconclusive (neither active nor inactive); the mix of calls is not that of the screen. The call rests on the fitted dose curve; in most records, active means well fitted inhibition curve with a large enough effect; inconclusive means small, poorly fitted or top-dose-only effect, or effect the other way, or another doubt; inactive means no such curve, though single readings can be large or run the other way. Potencies beside an inconclusive call are fits to weak or partial responses and may not hold up.

test: Nrf2 qHTS screen for inhibitors: counterscreen for cytotoxicity; details: A549 ARE-Fluc cells, CellTiter-Fluor viability, 18-24 h; activity change, negative = cytotoxicity: at 46 µM (top of the series)
Outline: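 A549 ARE_Fluc cells in 5% FBS OPTI-MEM were exposed to compounds in concentration-response for 18-24 h at 37 deg C. Viability was read by CellTiter-Fluor fluorescence (Ex 405/Em 525) after 30 min, before the luciferase read.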
On the % scale 0 is the no-effect control and ±100 the full control effect; potency means the concentration at half of the fitted maximal effect.

| Compound | Potency | activity change, negative = cytotoxicity |
| --- | --- | --- |
| Cc1ccc(-c2ccc(/C=C3\SC(N4CCOCC4)=NC3=O)o2)cc1 | inconclusive: 16.4 µM [falling, single point] | – |
| CCOc1ccccc1NS(=O)(=O)c1ccc(N2CCCCS2(=O)=O)cc1 | – | inactive: 11% |
| CCOc1ccccc1N1CCN(C2=C(NS(=O)(=O)c3cccs3)C(=O)c3ccccc3C2=O)CC1 | inconclusive: 29.1 µM [falling, single point] | – |
| CC(=O)Nc1ccc(NC(=O)/C=C/c2ccc3c(c2)OCO3)cc1 | – | inactive: -0.105% |
| CC1(C)C(=O)C=CC(=O)C(C)(C)C(=O)C=CC(=O)C(C)(C)C2=CC=C(O2)C(C)(C)C(=O)C=CC1=O | – | inactive: -7.96% |
| O=C(C1=C[C@H](c2coc3ccccc3c2=O)C[C@H](OCc2ccc(CO)cc2)O1)N1CCN(Cc2ccc3c(c2)OCO3)CC1 | – | inactive: -1.45% |
| Cc1ccc(N2C(=O)c3cccc4c(N)ccc(c34)C2=O)c2cccnc12 | inconclusive: 6.51 µM [falling, single point] | – |
| O=C(Nc1ccon1)c1ccc2c(c1)OCO2 | inconclusive: 8.2 µM [activator, partial curve, poor fit] | – |
| CNC(=O)N(O)C1N(/N=C/c2ccc(N(C)C)cc2)C(=S)SC1(C)C (centres undefined) | – | inactive: -2.58% |
| COc1ccc2c(c1)c(N1CCCC1=O)c(C(=O)Nc1cc(C)c(Cl)cc1OC)n2C | – | inactive: 3.79% |
| OCCN(CC(O)Cn1ccc2ccccc21)CC(O)Cn1ccc2ccccc21 (centres undefined) | inconclusive: 18.4 µM [activator, partial curve, poor fit] | – |
| CCOc1ccc(-c2nn(-c3ccccc3)cc2/C=C2\SC(=S)N(Cc3ccco3)C2=O)cc1 | inconclusive: 16.4 µM [activator, partial curve, poor fit] | – |
| O=[N+]([O-])c1c(Nc2ccccn2)cc(Cl)c2nonc12 | active: 18.4 µM | – |
| COc1ccc(OCC(O)Cn2c(=N)n(CCN3CCCCC3)c3ccccc32)cc1 (centres undefined) | inconclusive: 32.6 µM [falling, single point] | – |
| CCOc1cc2nc3c4ccccc4n(C)c3nc2cc1OCC | – | inactive: -15.1% |
| Cc1cc(C)c(C)c(S(=O)(=O)NCC(=O)NCc2ccco2)c1C | inconclusive: 2.91 µM [falling, partial curve] | – |
| C=CC[C@@H](CC(=O)N(CCO)Cc1ccccc1)C(=O)N[C@H](COC(=O)[C@@H](CC=C)Cc1ccc(F)cc1)Cc1c[nH]c2ccccc12 | inconclusive: 29.1 µM [falling, single point] | – |
| S=c1[nH]nc(Cc2cccc3ccccc23)o1 | – | inactive: 9.03% |
| Cc1ccc(Nc2nc(N)nc(CSc3nc4ccccc4s3)n2)cc1 | inconclusive: 29.1 µM [falling, single point] | – |

Ordered by molar mass (ascending): some entries from above

| Compound | Potency | activity change, negative = cytotoxicity |
| --- | --- | --- |
| O=[N+]([O-])c1c(Nc2ccccn2)cc(Cl)c2nonc12 | active: 18.4 µM | – |
| Cc1ccc(N2C(=O)c3cccc4c(N)ccc(c34)C2=O)c2cccnc12 | inconclusive: 6.51 µM [falling, single point] | – |
| CC1(C)C(=O)C=CC(=O)C(C)(C)C(=O)C=CC(=O)C(C)(C)C2=CC=C(O2)C(C)(C)C(=O)C=CC1=O | – | inactive: -7.96% |
